Results published in patent US20060006323A1, “Method and an apparatus for evaluating toxicity of chemical agents” (priority 2004, published 2006).

System: AhR aryl hydrocarbon receptor
Test: comparison of IR spectral peak structures of chemical agent and vicinity of AhR active center
Settings: IR spectrum of chemical agent vs AhR receptor

Clc1cc2c(cc1Cl)Oc1cc(Cl)c(Cl)cc1O2 [2,3,7,8-TCDD]
difference in frequencies giving peak structures: about 35 cm^−1

O=C1/C(=C2\Nc3ccccc3C2=O)Nc2ccccc21 [indigo]
difference in frequencies giving peak structures: about 35 cm^−1
